Measurements published in paper doi:10.1101/2022.07.21.500383 (bioRxiv, 2022).
These are yes or no findings as the source states them, for the method shown.

What was measured:
[1] = biological target: IL-11_(Δ10/Mutein) (human) (UniProt P20809); test: AUC
[2] = biological target: IL-11_(Δ10/W147A) (human) (UniProt P20809); test: AUC

binding [1]	binding [2]	Binder
no binding	–	IL-11_(Δ10/Mutein) (ligand, UniProt P20809 32-199) SPDPRAELDSTVLLTRSLLADTRQLAAQLRDKFPADGDHNLDSLPTLPAIDYALGALQLPGVLTRLRADLLSYLRHVQWLRRAGGSSLKTLEPELGTLQARLDRLLRRLQLLMSRLALPQPPPDPPAPPLAPPSSAAGGIRAAHAILGGLHLTLDWAVRGLLLLKTRL
–	no binding	IL-11_(Δ10/W147A) (ligand, UniProt P20809 32-199) SPDPRAELDSTVLLTRSLLADTRQLAAQLRDKFPADGDHNLDSLPTLAMSAGALGALQLPGVLTRLRADLLSYLRHVQWLRRAGGSSLKTLEPELGTLQARLDRLLRRLQLLMSRLALPQPPPDPPAPPLAPPSSAAGGIRAAHAILGGLHLTLDWAVRGLLLLKTRL
